According to PMC4770093, “The role of kinetic context in apparent biased agonism at GPCRs” (Nature Communications, 2016):
Some entries of the source have several records that differ or are many. They are shown here; other results are not. There may be further records. Values given together differ for a reason that is not stated; they may come from other doses, times, organisms or constructs than stated.

Amino acid sequences for entries named in this document (tags omitted).
UniProt P14416, whole entry: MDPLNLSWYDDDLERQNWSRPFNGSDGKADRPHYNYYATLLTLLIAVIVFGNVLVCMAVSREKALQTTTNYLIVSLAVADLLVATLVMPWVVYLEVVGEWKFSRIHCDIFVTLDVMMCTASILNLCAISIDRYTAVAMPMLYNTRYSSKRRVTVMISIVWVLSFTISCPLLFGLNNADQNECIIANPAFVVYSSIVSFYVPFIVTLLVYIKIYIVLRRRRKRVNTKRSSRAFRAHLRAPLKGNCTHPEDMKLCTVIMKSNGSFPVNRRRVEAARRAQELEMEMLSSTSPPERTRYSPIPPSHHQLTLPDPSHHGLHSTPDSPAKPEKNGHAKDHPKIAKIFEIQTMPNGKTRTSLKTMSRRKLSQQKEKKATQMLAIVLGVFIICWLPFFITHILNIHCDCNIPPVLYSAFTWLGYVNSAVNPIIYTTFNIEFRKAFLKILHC

Target: D2LR (Homo sapiens, UniProt P14416)
Test: Inhibition of forskolin-induced cAMP production (BRET CAMYEL biosensor); note: test concentration or dose not given here
Conditions: single experiments n = 1, 2, 3

| SMILES | Inhibition of cAMP production measured using a CAMYEL BRET biosensor, Net BRET (time 0.383333 mins) | Inhibition of cAMP production measured using a CAMYEL BRET biosensor, Net BRET (time 0.75 mins) | Inhibition of cAMP production measured using a CAMYEL BRET biosensor, Net BRET (time 1.11667 mins) |
| --- | --- | --- | --- |
| CN1CCN(c2cccc3[nH]c(=O)oc23)CC1 [Pardoprunox, pardoprunox] | 0.02263, 0.02384, 0.009659 | – | – |
| CCCN1CCC[C@@H](c2cccc(O)c2)C1 [S-3PPP, (S)-(-)-3-(3-hydroxyphenyl)-N-propylpiperidine] | – | 0.02173, 0.0472, 0.03133 | 0.02607, 0.06736, 0.04711 |
